About 1,700 (0.57%) of roughly 300,000 compounds were called active. Listed are the inconclusive results; actives and inactives stand elsewhere.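 How the source made its calls: active means growth inhibition above about 58% in most replicates (limit read from the data, passing the limit was not always enough); inconclusive means exactly half the replicates above a set limit; inactive means most replicates below a set limit.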
Test: Candida growth reduction under fluconazole – CaCi-2 strain, Alamar Blue fluorescence, primary screen (AID 1979);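 further: all wells also contain fluconazole at 8 µg/ml as a sub-toxic cotreatment; 0% = median of DMSO wells and 100% = median of geldanamycin control wells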
Settings: C. albicans CaCi-2 (fluconazole-resistant clinical isolate) + fluconazole, 48 h, active compounds read high, concentration not given here
For `CN(C)C(=O)c1c([N+](=O)[O-])cc([N+](=O)[O-])cc1[N+](=O)[O-]`, the growth inhibition was inconclusive: 72.9%.

Source: PubChem BioAssay AID1979 (Broad Institute, 2009)
